From doi:10.1101/2023.03.18.533280
Results are given in words; binding and its absence hold for the method and conditions named. Binding seen in cells or lysates may run through a third protein. Here binding means that the protein was enriched with, or labelled near, the bait; the list need not be complete.

Target: EGFP-NSP12_(P323) (SARS-CoV-2 (Wuhan sequence)) (UniProt P0DTD1)
Assay: affinity purification with mass spectrometry

Molecule	binding
EEF1A1 (from UniProt P68104 1-462)	binds
EEF1G (from UniProt P26641 1-437)	binds
Sterol-4-alpha-carboxylate 3-dehydrogenase (protein, UniProt Q15738 1-373) MEPAVSEPMRDQVARTHLTEDTPKVNADIEKVNQNQAKRCTVIGGSGFLGQHMVEQLLARGYAVNVFDIQQGFDNPQVRFFLGDLCSRQDLYPALKGVNTVFHCASPPPSSNNKELFYRVNYIGTKNVIETCKEAGVQKLILTSSASVIFEGVDIKNGTEDLPYAMKPIDYYTETKILQERAVLGANDPEKNFLTTAIRPHGIFGPRDPQLVPILIEAARNGKMKFVIGNGKNLVDFTFVENVVHGHILAAEQLSRDSTLGGKAFHITNDEPIPFWTFLSRILTGLNYEAPKYHIPYWVAYYLALLLSLLVMVISPVIQLQPTFTPMRVALAGTFHYYSCERAKKAMGYQPLVTMDDAMERTVQSFRHLRRVK	binds
